The text below walks through data of patent US20130005747A1, “METHOD FOR SELECTING A CANCER THERAPY” (Cyclacel Limited, priority 2010, published 2013).

In the data set the test system is NSCLC cell lines. Put plainly: Pharmacogenomic analysis, NSCLC cell lines, summary. It counts as cell-based, human. Particulars: of 52 NSCLC cell lines; number (%).

Turning to `CC[C@H](CO)Nc1nc(NCc2ccccc2)c2ncn(C(C)C)c2n1` [seliciclib, roscovitine], the “NSCLC cell lines with marked sensitivity (fractional growth ≦50% versus controls)” value is 29 (56%); the “NSCLC cell lines with modest sensitivity (fractional growth between 75% and 50%)” value was 21 (40%).
